No constants are given. Whether binding was seen depends on the method and setting. Binding seen in cells or lysates may run through a third protein. A yes stands for co-enrichment or nearness to the bait. Other partners may have been found.

Amino acid sequences for entries named in this document (tags omitted).
UniProt P08151: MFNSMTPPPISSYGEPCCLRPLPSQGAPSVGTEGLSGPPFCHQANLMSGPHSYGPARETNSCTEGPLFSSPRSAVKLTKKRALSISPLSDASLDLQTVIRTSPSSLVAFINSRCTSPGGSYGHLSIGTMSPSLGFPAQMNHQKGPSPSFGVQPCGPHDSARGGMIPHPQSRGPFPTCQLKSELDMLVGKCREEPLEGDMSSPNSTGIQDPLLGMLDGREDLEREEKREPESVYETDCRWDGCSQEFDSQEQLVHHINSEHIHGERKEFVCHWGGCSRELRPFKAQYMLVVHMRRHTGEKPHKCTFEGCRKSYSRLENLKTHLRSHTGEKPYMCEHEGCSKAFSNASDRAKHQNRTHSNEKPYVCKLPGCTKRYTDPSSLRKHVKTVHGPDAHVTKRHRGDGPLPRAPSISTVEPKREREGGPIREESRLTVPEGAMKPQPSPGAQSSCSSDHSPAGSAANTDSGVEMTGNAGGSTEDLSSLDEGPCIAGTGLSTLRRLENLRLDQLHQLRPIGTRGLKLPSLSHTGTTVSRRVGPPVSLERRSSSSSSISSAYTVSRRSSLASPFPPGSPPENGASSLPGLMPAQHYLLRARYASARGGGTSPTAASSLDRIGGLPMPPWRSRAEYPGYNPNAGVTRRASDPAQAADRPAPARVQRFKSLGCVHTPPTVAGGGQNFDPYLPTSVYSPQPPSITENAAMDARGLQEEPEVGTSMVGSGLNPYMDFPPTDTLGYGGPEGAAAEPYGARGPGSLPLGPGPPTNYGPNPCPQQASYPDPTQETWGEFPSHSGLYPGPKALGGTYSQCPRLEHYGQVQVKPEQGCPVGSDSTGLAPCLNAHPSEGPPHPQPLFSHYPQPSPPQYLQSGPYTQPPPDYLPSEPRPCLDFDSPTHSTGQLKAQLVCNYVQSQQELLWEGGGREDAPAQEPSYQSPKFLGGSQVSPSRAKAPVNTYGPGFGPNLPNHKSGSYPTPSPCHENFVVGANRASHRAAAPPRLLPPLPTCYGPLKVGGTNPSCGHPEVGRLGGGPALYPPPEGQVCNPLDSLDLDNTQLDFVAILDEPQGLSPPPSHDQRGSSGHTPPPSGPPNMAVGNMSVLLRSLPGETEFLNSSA

The text below walks through data of article PMC5356604.

For this assay, the target named is HA-tagged Gli1 (expressed in HEK293T cells) (UniProt P08151). In words: affinity purification with mass spectrometry; HA-Gli1 transfected into HEK293T cells and immunoprecipitated; bound proteins separated by SDS-PAGE, silver stained, differential bands identified by mass spectrum.

B1: WW45 (endogenous, HEK293T cells) (protein, UniProt Q9H4B6 1-383)
chain: MLSRKKTKNEVSKPAEVQGKYVKKETSPLLRNLMPSFIRHGPTIPRRTDICLPDSSPNAFSTSGDVVSRNQSFLRTPIQRTPHEIMRRESNRLSAPSYLARSLADVPREYGSSQSFVTEVSFAVENGDSGSRYYYSDNFFDGQRKRPLGDRAHEDYRYYEYNHDLFQRMPQNQGRHASGIGRVAATSLGNLTNHGSEDLPLPPGWSVDWTMRGRKYYIDHNTNTTHWSHPLEREGLPPGWERVESSEFGTYYVDHTNKKAQYRHPCAPSVPRYDQPPPVTYQPQQTERNQSLLVPANPYHTAEIPDWLQVYARAPVKYDHILKWELFQLADLDTYQGMLKLLFMKELEQIVKMYEAYRQALLTELENRKQRQQWYAQQHGKNF
Regarding B1, the binding result was “binds”.
